Some entries share one result that the patent states for a list of compounds.
Key:
[1] = system: RAW 264.7 murine macrophages; assay: western blotting of β-catenin and GSK-3 in RAW 264.7 macrophages; format: cell-based; settings: RAW 264.7, 5 hours
Experimental: To test the ability of COB-187 and COB-152 to increase β-catenin levels, RAW 264.7 macrophages and PMA differentiated THP-1 cells were treated with COB-152 or COB 187 at different concentrations or 0.1% (v/v) DMSO solvent for 5 hours. Following treatment, protein was extracted and probed for β-catenin and total GSK-3 via western blotting.
More specifically, RAW 264.7 cells and PMA differentiated THP-1 cells were treated with varying concentrations of COB-187 or COB-152 dissolved in culture media containing 0.1% (v/v) dimethylsulfoxide (i.e., DMSO) solvent or with 0.1% (v/v) DMSO alone for 5 or 24 hours. After incubation, […] protein was extracted from the cells and quantified. More specifically, culture supernatant was collected and store at −80° C. until further use. The cells were lysed in 10 mM Tris HCl at pH 7.5, 150 mM NaCl, and 1% nonyl phenoxypolyethoxylethanol-40, containing a cocktail of protease inhibitors (Roche, Mannheim, Germany). Insoluble material was pelleted and the supernatant containing total protein as well as the culture supernatant was quantified using a Micro BCA protein kit. […] of protein was then resolved onto a denaturing gel, transferred to a nitrocellulose membrane, and immunoblotted with antibodies against GSK-3 and β-catenin. Signals were detected using the Li-Cor Odyssey Infrared Imaging System (Lincoln, Nebr.). […]

[2] = system: PMA differentiated THP-1 cells; assay: western blotting of β-catenin and GSK-3 in PMA differentiated THP-1 cells; format: cell-based, human; settings: PMA differentiated THP-1, 5 hours
Experimental: RAW 264.7 cells were cultured in RPMI 1640 medium supplemented with 10% FBS and 0.5% penicillin-streptomycin stabilized solution. THP-1 cells were cultured and differentiated into macrophages using phorbol 12-myristate 13-acetate (i.e., PMA). More specifically, THP-1 cells were cultured in RPMI-1640 10% FBS supplemented with 0.05 mM 2-mercaptoethanol. For differentiation to a macrophage phenotype, THP-1 cells were stimulated with PMA (50 ng/mL) for 24 hours. Differentiated THP-1 cells were washed with fresh media twice before incubation for 24 more hours at 37° C., 5% CO2 in a humidified incubator. The monolayer was then treated with ox-LDL or native LDL (both at either 50 or 100 μg/mL) and LPS (10 ng/mL) for 4 hours. […]
More specifically, RAW 264.7 cells and PMA differentiated THP-1 cells were treated with varying concentrations of COB-187 or COB-152 dissolved in culture media containing 0.1% (v/v) dimethylsulfoxide (i.e., DMSO) solvent or with 0.1% (v/v) DMSO alone for 5 or 24 hours. After incubation, […] protein was extracted from the cells and quantified. […] Insoluble material was pelleted and the supernatant containing total protein as well as the culture supernatant was quantified using a Micro BCA protein kit. […] Signals were detected using the Li-Cor Odyssey Infrared Imaging System (Lincoln, Nebr.). […]

Row | Compound | concentration at which increased β-catenin protein expression was clearly evident [1] [µM] | concentration at which increased β-catenin protein expression was clearly evident [2] [µM]
1 | OC1(c2ccccc2)CSC(=S)N1Cc1cccnc1 (stereo not shown) [COB-152] | ≥ 10 | ≥ 10
2 | OC1(c2ccccc2)CSC(=S)N1Cc1ccncc1 (stereo not shown) [COB-187] | ≥ 10 | ≥ 10

Reference: US20170202818A1, “METHODS AND COMPOSITIONS TO MODIFY GSK-3 ACTIVITY” (Ohio University, priority 2014, published 2017)
